Data: article PMC6391426
Changes are numbered by the printed parent chain. Names may count otherwise. No constants are given. Whether binding was seen depends on the method and setting. Some binding calls cover weakened binding; strength is not graded here.

B1: Sgo2N2 fragment (aa1-206) of Sgo2 (domain or fragment, UniProt O13734 1-206)
chain: MSKASLSPNVEDLKKKQIRQYKEIIRISKAQSIRIKELQLENERLLSENIDLRTTAINLEEQLETVQNENEENKTKLAALLNRFHEETDNFLSKLSLCQQEIQDTFKPVEANLAYDVDTDSEDLDEESVVKDTEEIIEQAQHDVSLRNLSGIEDENIIDDGETAINEQKKREANVFSDTQSAPQLKSGKALPADFENPYNLSNSKP
B2: Sgo2N2 fragment (aa1-206) of Sgo2 with L63P (domain or fragment, UniProt O13734 1-206)
chain: B1 chain with L63P

Legend:
[1] = biological target: Sgo2N2 fragment (aa1-206) of Sgo2 (S. pombe) (UniProt O13734); experiment: two-hybrid; Sgo2N2 fragment (aa1-206) tested for dimerization; fusion domains, strain and reporter not told in the text shown
[2] = biological target: Sgo2N2 fragment (aa1-206) of Sgo2 with L63P (S. pombe) (UniProt O13734); experiment: as above

| Binder | binding [1] | binding [2] |
| --- | --- | --- |
| B1 | binds | – |
| B2 | – | no binding |
